Data: patent US20210128554A1, “ANTI-FLAVIVIRIDAE ACTIVITY OF ANTI-RETROVIRAL NON-NUCLEOSIDE (NNRTIS) AND NUCLEOSIDE REVERSE TRANSCRIPTASE INHIBITORS (NNRTIS)” (priority 2016, published 2021)
For at least one compound, name, drawing or mass did not settle the structure.

How the values were obtained:
[1] = test system: PRVABC59 strain of ZIKV; experiment: Anti-ZIKV activity of rilpivirine in IFNR−/− mice infected with ZIKV; type: in vivo
[2] = test system: Zika virus; experiment: ZIKV capsid and NS3 protein expression in primary human adult astrocytes (Western blotting); type: cell-based; conditions: ZIKV 0.5 MOI, whole cell lysates at 96 hrs post-infection
[3] = test system: Zika virus; experiment: ZIKV NS1, NS2A, NS4A gene expression in primary human adult astrocytes (semi quantitative RT-PCR); type: cell-based; conditions: ZIKV 0.5 MOI, cellular RNA at 96 hrs post-infection
[4] = test system: Zika virus; experiment: ZIKV RNA copies in cellular RNA of infected primary human adult astrocytes (Real-time Q-RT-PCR); type: cell-based; conditions: ZIKV 0.5 MOI, treated at 24, 48, 72 hrs, cellular RNA at 96 hrs post-infection
[5] = test system: Zika virus; experiment: ZIKV copy numbers released by primary human fetal astrocytes treated with NNRTIs (Real-time Q-RT-PCR); type: cell-based; conditions: ZIKV 0.1 MOI, 5, 10, and 25 μM at 24, 48, 72 hrs, culture media at 96 hrs
Protocol: FIG. 6 is a graph showing that Zika virus replication is suppressed by antiretroviral HIV-1 non-nucleoside reverse transcriptase inhibitors (NNRTIs) in primary astrocytes: Primary human fetal astrocytes were plated in 6 well tissue culture dishes and infected with ZIKV at 0.1 MOI. At 24, 48, and 72 hrs post-infections, cells were treated with increasing concentrations of anti-retroviral non-nucleoside reverse transcriptase inhibitors Rilpivirine, Efavirenz, and Etravirine at 5, 10, and 25 μM concentrations. Culture media of the infected cells were collected at 96 hrs post-infections and subjected to Real-time Q-RT-PCR for the detection and quantification of ZIKV copy numbers released by infected cells.

[6] = IFNR−/− mice infected with ZIKV, rilpivirine 12.5 μg per 25 g mouse IP daily

Cc1cc(/C=C/C#N)cc(C)c1Nc1ccnc(Nc2ccc(C#N)cc2)n1 [Rilpivirine]
Grip test [1, 6]: supported the anti-ZIKV activity | Weight loss [1, 6]: supported the anti-ZIKV activity | Inhibition of ZIKV in IFNR−/− mice ([1]; IFNR−/− mice, FIGS. 7A-7D): inhibits ZIKV | Survival (Kaplan-Meier) ([1]; IFNR−/− mice, ZIKV 10,000 pfu footpad, rilpivirine 12.5 μg per 25 g mouse IP daily from two days prior to infection, to day 14): survived | ZIKV RNA copies in the brain ([1]; IFNR−/− mice, post-mortem brain tissues, Q-RT-PCR, rilpivirine 12.5 μg per 25 g mouse IP daily): significantly reduced | ZIKV protein expression (capsid and NS3) [2]: suppressed | ZIKV gene expression (NS1, NS2A, NS4A) [3]: suppressed | ZIKV gene expression (NS1, NS2A, NS4A) ([3]; listed as TmC): significant decrease | ZIKV RNA copies in infected cells (Zika virus RNA replication) [4]: suppressed | ZIKV RNA copies in infected cells (Zika virus RNA replication) ([4]; listed as TmC): robust suppression | Zika virus replication (ZIKV copy numbers released by infected cells) [5]: suppressed
